Results on 29 compounds are retold here after the supplement of paper PMC10735217.

Where a name gives a salt, the structure may show the parent alone. This is one part of the list. Repeats in this data set agree poorly, so a single value says little.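 Human kidney-derived cells stably carry a construct in which eight TEAD-binding elements drive luciferase, measured by luminescence in a drug-repurposing library screen. A hit is any compound whose signal exceeds the plate mean by more than five robust Z scores.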

The experiment has as its system HEK293A TEAD-LUC reporter. The experiment can be described thus: TEAD-luciferase reporter activity (YAP activation), robust Z score vs plate; higher = stronger YAP/TEAD activation. Conditions: 24 h. (In general: In a reporter assay the amount or activity of a reporter protein is the signal.)

As to `CC(=O)N1Cc2ccccc2CC2(CCCCN2CC2CCNC2)C1` (stereo not given), the TEAD-luciferase reporter activity is inactive: -2.11 (compound concentration: 200 nM) and inactive: 4.15 (compound concentration: 10 uM).
`O=C(N[C@@H](Cc1ccc(F)cc1)C(=O)N1CCC(O)CC1)c1cc2cc(Cl)ncc2[nH]1`: the TEAD-luciferase reporter activity is inactive: 0.24 (compound concentration: 200 nM), inactive: 0.00597 (compound concentration: 2 uM) and inactive: 1.09 (compound concentration: 10 uM).
For `O=C1NCc2ccccc2CC12CCCN2Cc1cccc(Br)c1` (stereo not given), the TEAD-luciferase reporter activity reads like this: (compound concentration: 200 nM) inactive: -0.774; (compound concentration: 10 uM) inactive: 1.65.
The matching figures for `CC(=O)N1CCC2(CC1)CN(C(=O)CCC(=O)O)Cc1ccccc1O2`: inactive: -0.552 and inactive: 3.01.
On to `O=C(Nc1cccc(Cl)c1)Nc1ncc(CCNc2ncnc3ccsc23)s1`, for which the TEAD-luciferase reporter activity runs as follows: (compound concentration: 200 nM) inactive: 1.58; (compound concentration: 2 uM) inactive: -0.62; (compound concentration: 10 uM) inactive: -0.273.
With `O=C(O)CCC(=O)N1Cc2ccccc2CC2(CCCCN2CCc2ccccc2)C1` (stereo not given), the TEAD-luciferase reporter activity reads like this: (compound concentration: 200 nM) active: 5.9; (compound concentration: 10 uM) inactive: 3.44.
Regarding `CCc1c2c(nc3ccc(OC(=O)N4CCC(N5CCCCC5)CC4)cc13)-c1cc3c(c(=O)n1C2)COC(=O)[C@]3(O)CC` [etirinotecan pegol], under “compound concentration: 2 uM”, the TEAD-luciferase reporter activity was inactive: -0.994.
For the compound `CCc1c2c(nc3ccc(OC(=O)N4CCC(N5CCCCC5)CC4)cc13)-c1cc3c(c(=O)n1C2)COC(=O)[C@]3(O)CC` [Irinotecan hydrochloride], the TEAD-luciferase reporter activity is inactive: -1.45 (compound concentration: 200 nM) and inactive: 0.854 (compound concentration: 10 uM).
On to `c1cnc2cc3c(cc2n1)[C@@H]1CNC[C@H]3C1` [Varenicline tartrate], for which, for the setting “compound concentration: 2 uM”, the TEAD-luciferase reporter activity is inactive: -0.871.
In the case of `c1cnc2cc3c(cc2n1)[C@@H]1CNC[C@H]3C1`, the TEAD-luciferase reporter activity runs as follows: (compound concentration: 200 nM) inactive: 4.97; (compound concentration: 10 uM) inactive: 1.75.
Regarding `Cc1cc2c(N3CCCC3)nc(N3CCCC3)nc2n1C`, the TEAD-luciferase reporter activity runs as follows: (compound concentration: 200 nM) inactive: 4.64; (compound concentration: 2 uM) inactive: 1.62; (compound concentration: 10 uM) inactive: -0.979.
With `N#Cc1ccc(C2CCCc3cncn32)cc1` (stereo not given) [fadrozole], the TEAD-luciferase reporter activity was inactive: 0.664 (compound concentration: 200 nM), inactive: 1.66 (compound concentration: 2 uM) and inactive: -0.24 (compound concentration: 10 uM).
For the compound `CCOC(=O)[C@H](CCc1ccccc1)N[C@@H](C)C(=O)N1Cc2cc(OC)c(OC)cc2C[C@H]1C(=O)O`, the TEAD-luciferase reporter activity was inactive: -1.14 (compound concentration: 200 nM), inactive: -1.25 (compound concentration: 2 uM) and inactive: 0.665 (compound concentration: 10 uM).
Take `CCCCCC(/C=C/n1ccnc1)OC(=O)c1cccnc1` (stereo not given) [nicogrelate]: the TEAD-luciferase reporter activity reads like this: (compound concentration: 200 nM) inactive: -1.35; (compound concentration: 2 uM) inactive: 0.976; (compound concentration: 10 uM) inactive: -0.686.
The matching figures for `O=C1NCN(c2ccccc2)C12CCN(CCCC(c1ccc(F)cc1)c1ccc(F)cc1)CC2` [Fluspirilene]: inactive: -0.753, inactive: -0.336 and inactive: -0.184.
As to `N#Cc1ccccc1/C=C/C=C/C(=O)N1CCN(c2ccccn2)CC1`, the TEAD-luciferase reporter activity (compound concentration: 200 nM) is inactive: 0.749, the TEAD-luciferase reporter activity (compound concentration: 2 uM) was inactive: 0.308 and the TEAD-luciferase reporter activity (compound concentration: 10 uM) is inactive: 2.49.
With `CC/C=C(\C(=O)N[C@@H]1C(=O)N2C(C(=O)OCOC(=O)C(C)(C)C)=C(COC(N)=O)CS[C@H]12)c1csc(N)n1` [cefcapene pivoxil], the TEAD-luciferase reporter activity (compound concentration: 2 uM) was inactive: -0.211.
For `CC/C=C(\C(=O)N[C@@H]1C(=O)N2C(C(=O)OCOC(=O)C(C)(C)C)=C(COC(N)=O)CS[C@H]12)c1csc(N)n1` [Cefcapene Pivoxil Hydrochloride Monohydrate], the TEAD-luciferase reporter activity is, setting by setting: (compound concentration: 200 nM) inactive: -1.13; (compound concentration: 10 uM) inactive: -3.5.
For `C/C(=N\Nc1nnc2c(n1)[nH]c1c(C)cccc12)c1ccccn1`, the TEAD-luciferase reporter activity is, setting by setting: (compound concentration: 200 nM) inactive: 0.409; (compound concentration: 2 uM) inactive: -2.96; (compound concentration: 10 uM) inactive: 1.18.
The matching figures for `NCC[C@H](O)C(=O)N[C@@H]1C[C@H](N)[C@@H](O[C@H]2O[C@H](CN)CC[C@H]2N)[C@H](O)[C@H]1O[C@H]1O[C@H](CO)[C@@H](O)[C@H](N)[C@H]1O`: inactive: 0.828, inactive: -0.478 and inactive: 0.376.
On to `O=C(O)C1CCN(C(=O)Cn2c(=O)sc3ccc(Cl)cc32)CC1`, for which the TEAD-luciferase reporter activity is inactive: -0.777 (compound concentration: 200 nM), inactive: -1.59 (compound concentration: 2 uM) and inactive: -0.0501 (compound concentration: 10 uM).
As to `CS(=O)(=O)OCCC(=O)N1CCN(C(=O)CCOS(C)(=O)=O)CC1`, the TEAD-luciferase reporter activity by setting is: (compound concentration: 200 nM) inactive: -0.537; (compound concentration: 2 uM) inactive: 1.81; (compound concentration: 10 uM) inactive: -0.168.
On to `COC(=O)Nc1nc2ccc(C(=O)N3CCN(c4ccccn4)CC3)cc2[nH]1`, for which the TEAD-luciferase reporter activity runs as follows: (compound concentration: 200 nM) inactive: -1.01; (compound concentration: 2 uM) inactive: -0.185; (compound concentration: 10 uM) inactive: 0.0817.
For the compound `CCOC(=O)C1C2C(=O)CC3(SCCS3)C21` (stereo not given), the TEAD-luciferase reporter activity is, setting by setting: (compound concentration: 200 nM) inactive: -0.721; (compound concentration: 2 uM) inactive: 0.102; (compound concentration: 10 uM) inactive: 1.1.
Take `O=C(O)C(S)CC(S)C(=O)O` (stereo not given): the TEAD-luciferase reporter activity reads like this: (compound concentration: 200 nM) inactive: 0.0202; (compound concentration: 2 uM) inactive: -1.08; (compound concentration: 10 uM) inactive: 1.78.
As for `c1ccc2c(COC3CCNCC3)cccc2c1`, the TEAD-luciferase reporter activity (compound concentration: 200 nM) was inactive: 0.464, the TEAD-luciferase reporter activity (compound concentration: 2 uM) is inactive: 0.551 and the TEAD-luciferase reporter activity (compound concentration: 10 uM) was inactive: -0.997.
For `COc1ccc(C(=O)N2CCC3(CC2)NC(=O)c2ccccc2O3)cc1`, the TEAD-luciferase reporter activity is inactive: -2.58 (compound concentration: 200 nM) and inactive: 4.2 (compound concentration: 10 uM).
Regarding `COC(=O)[C@H](c1ccccc1Cl)N1CCc2sccc2C1` [clopidogrel], the TEAD-luciferase reporter activity reads like this: (compound concentration: 200 nM) inactive: -1.44; (compound concentration: 10 uM) inactive: 0.155.
For the compound `COC(=O)[C@H](c1ccccc1Cl)N1CCc2sccc2C1` [clopidogrel bisulfate, Prism], the TEAD-luciferase reporter activity (compound concentration: 2 uM) is inactive: -0.275.
